According to PMC12048343, “Discovery of a small molecule secreted clusterin enhancer that improves memory in Alzheimer’s disease mice” (npj Drug Discovery, 2025):
“Also recorded” adds a separate entry of the source.

System: sCLU secreted from human U-87 MG glioblastoma cells
Assay: Human sCLU AlphaLISA on supernatant of U-87 MG cells (HTS, re-test, dose response)
Type: cell-based
Procedure: Cell culture supernatant (2 μL) was added to a 384-well proxy plate preloaded with AlphaLISA HiBlock buffer (2 µL, 1X, CAT#AL004C, Perkin Elmer). Then an anti-sCLU antibody mixture (2 µL, mAb J84, biotinylated (10 nM, Cat# 3717-6-1000, Mabtech) and mAb CLU aa 22-227 (Cat#AF7084, R&D Systems), Acceptor bead conjugated (50 µg/mL, Cat#6772001, Perkin Elmer)) was added and incubated at room temperature for 1 hour. AlphaScreen Streptavidin Donor beads (2 µL, Cat#6760002S, Perkin Elmer) were added, incubated for an additional 30 min in the dark, and the plate was read in an Envision plate reader.
Human glioblastoma U-87 MG cells were proliferated in EMEM with 10% FBS and 1% P/S (complete medium) in 10 cm dishes until approximately 90% confluent. Following trypsinization, a suspension of 2 × 10^5 cells/mL (25 µL) were added to 384-well plates containing complete medium (25 µL) and library compounds from 9 plates (5 µM). After incubation for 30 h at 37 °C and 5% CO2, 2 μL of cell culture supernatant were analyzed via human sCLU AlphaLISA as described above. […]
Human glioblastoma U-87 MG cells were proliferated in EMEM with 10% FBS and 1% P/S (complete medium) in 10 cm dishes until approximately 90% confluent. […] After incubation for 30 hours at 37 °C and 5% CO2, 2 μL of cell culture supernatant were analyzed via human sCLU AlphaLISA as described above.

O=C(CCCCCCC(=O)Nc1ccccc1)NO [vorinostat]
sCLU levels relative to DMSO control (5 µM): increased sCLU; also recorded: significantly increase sCLU levels
EC50 (Homo sapiens, dose response, text and figures): 2040 nM
